PubChem BioAssay AID1259354 (Paczesny and Yang Labs, IUPUI and University of Michigan, 2018)
Among all 78,000 compounds or so, about 1,800 (2.3%) were called active. Inconclusive results, whose numbers are uncertain, are shown with a selection of clear calls. No stated cut-off is given here; in the data, active means inhibition above about 30%; inconclusive means mostly about 10% to 28%; inactive means weaker than that.

By UniProt entry, the sequences of proteins in these tests, tags left out. Where a name states a change or a piece, a line headed by the entry shows the natural chain unless it says otherwise.
UniProt Q01638: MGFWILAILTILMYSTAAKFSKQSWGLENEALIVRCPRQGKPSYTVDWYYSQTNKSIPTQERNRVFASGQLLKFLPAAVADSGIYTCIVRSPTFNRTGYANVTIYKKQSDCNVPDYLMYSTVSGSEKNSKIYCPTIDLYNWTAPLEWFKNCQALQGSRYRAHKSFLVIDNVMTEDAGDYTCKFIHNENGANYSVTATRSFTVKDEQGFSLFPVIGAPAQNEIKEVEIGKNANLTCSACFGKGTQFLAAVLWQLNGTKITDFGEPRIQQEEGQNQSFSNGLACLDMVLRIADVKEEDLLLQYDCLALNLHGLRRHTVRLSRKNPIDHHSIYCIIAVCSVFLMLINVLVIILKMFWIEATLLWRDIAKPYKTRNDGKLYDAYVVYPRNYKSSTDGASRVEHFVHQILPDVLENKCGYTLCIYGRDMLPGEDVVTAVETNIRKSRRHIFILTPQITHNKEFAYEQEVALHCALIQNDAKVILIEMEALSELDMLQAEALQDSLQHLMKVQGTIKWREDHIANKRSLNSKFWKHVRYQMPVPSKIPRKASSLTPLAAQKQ

Biological target: Interleukin-1 receptor-like 1 (Homo sapiens) (UniProt Q01638)
Assay: blocks human ST2 binding to IL-33, primary screen, biochemical, AlphaLISA (AID 1259354)
Details: AlphaLISA ST2-Fc/biotin-IL-33 interaction, 1 h; at 17 µM, hits give high values

Q: For `COc1cc2c(cc1OC)C(C(=O)N(C)c1ccc(C(C)C)cc1)C(c1cccs1)N(C)C2=O` (centres undefined), which inhibition is on record?
A: The inhibition was inconclusive: 10%.

Q: Which inhibition does the source give for `CC[C@H]1CN(C(=O)C(C)(C)C)CC[C@H]1CC(=O)N1CCOCC1` here?
A: The inhibition was “inactive”.

Q: For `COc1ccc(CCNc2oc(COc3ccccc3)nc2C#N)cc1OC`, which inhibition is on record?
A: The inhibition was inconclusive: 12%.

Q: Which inhibition does the source give for `C=CCNC(=O)C1CCC(=O)N(C2CC2)C1` (centres undefined) here?
A: Its inhibition is inconclusive: 13%.

Q: With `CCOC(=O)C1C(=O)C=C(c2ccc(OC)cc2)CC1c1ccc(OC)c(OC)c1` (centres undefined) as the compound, how does the inhibition read?
A: Its inhibition is “inactive”.

Q: For `COc1ccccc1C1C(Oc2ccccc2C)C(=O)N1c1cccc([N+](=O)[O-])c1` (centres undefined), which inhibition is on record?
A: The inhibition was active: 33%.

Q: With `Cc1nc(N2CCOCC2)c2c(C)c(C(=O)N3CCN(c4ccccn4)CC3)sc2n1` as the compound, how does the inhibition read?
A: Its inhibition is “inactive”.

Q: `O=C(CC1COCCN1)NCc1nnc2n1CCC2` (centres undefined) was tested. Which inhibition did it give?
A: The inhibition was “inactive”.

Q: `O=[N+]([O-])c1cccc(-c2noc([C@@H]3C[C@@H](O)CN3C3CCOCC3)n2)c1` was tested. Which inhibition did it give?
A: The inhibition was inconclusive: 26%.

Q: Which inhibition does the source give for `COc1ccc(C(=O)Nc2cc3cc(Cl)ccc3oc2=O)cc1` here?
A: The inhibition was inconclusive: 25%.

Q: How did the inhibition turn out when `COc1cc(/C=C2/SC(=Nc3ccccc3)NC2=O)cc(OC)c1OC` was run?
A: The inhibition was inconclusive: 29%.

Q: `Cc1ccc(Nc2cc(C)nc(Nc3ccc(NC(=O)CC4CCCC4)cc3)n2)cc1` was tested. Which inhibition did it give?
A: The inhibition was active: 31%.

Q: How did the inhibition turn out when `Cc1cc(C)n(-c2cc(N3CCN(C(=O)c4ccco4)CC3)ccc2[N+](=O)[O-])n1` was run?
A: The inhibition was “inactive”.

Q: Which inhibition does the source give for `COc1ccc(Cl)cc1N(CC(=O)NCc1ccco1)S(=O)(=O)c1ccccc1` here?
A: Its inhibition is inconclusive: 29%.

Q: How did the inhibition turn out when `CCc1ccc(-c2cn3c(C(=O)N4[C@@H]5CC[C@H]4CNC(=O)C5)csc3n2)cc1` was run?
A: Its inhibition is active: 36%.

Q: `CN1C(=O)C2(CCN(C(=O)C(O)c3ccc(F)cc3)CC2)c2ccccc21` (centres undefined) was tested. Which inhibition did it give?
A: Its inhibition is inconclusive: 20%.

Q: `Fc1ccccc1-c1nc(NCc2cccs2)c2ccccc2n1` was tested. Which inhibition did it give?
A: The inhibition was inconclusive: 13%.

Q: For `Nc1nonc1-c1noc(COc2cccc(Cl)c2Cl)n1`, which inhibition is on record?
A: Its inhibition is “inactive”.

Q: For `CCCCSc1nc2c(c(=O)n1-c1ccc(F)cc1)SCC2`, which inhibition is on record?
A: Its inhibition is inconclusive: 17%.

Q: How did the inhibition turn out when `CCn1c(CC2CCN(c3nc(OC)cc(OC)n3)CC2)nn(C)c1=O` was run?
A: The inhibition was inconclusive: 13%.

Q: With `COc1cccc2cc(C(=O)Nc3ccc(Cl)cc3Cl)c(=O)oc12` as the compound, how does the inhibition read?
A: Its inhibition is “inactive”.

Q: Which inhibition does the source give for `CN1CCN(C(=O)CC[C@H]2CNC(=O)[C@@H]3[C@@H](CCN3Cc3ccc(C(=O)O)cc3)N2C)CC1` here?
A: The inhibition was inconclusive: 11%.

Q: For `Cc1cc(C(=O)N2C[C@H](N)C[C@H]2C(=O)NC(C)C)sc1-c1ccccc1`, which inhibition is on record?
A: The inhibition was inconclusive: 19%.

Q: Which inhibition does the source give for `CC1CCC2=C(CCCC2(C)C(=O)O)C1(C)CCc1ccoc1` (centres undefined) here?
A: Its inhibition is inconclusive: 27%.

Q: With `COc1ccc(NC(=O)CSc2ncccn2)cc1` as the compound, how does the inhibition read?
A: The inhibition was “inactive”.

Q: `O=C(CC[C@@H]1CNC(=O)[C@@H]2C[C@H](NC(=S)Nc3ccc(Cl)cc3)CN12)NCc1cccnc1` was tested. Which inhibition did it give?
A: Its inhibition is inconclusive: 14%.

Q: `Cc1cccc(CNC(=O)N2CCC3(CCNCC3)C2)c1` was tested. Which inhibition did it give?
A: Its inhibition is inconclusive: 15%.

Q: With `c1ccc(-n2cnnc2)c(OCc2nc(CC3CC3)no2)c1` as the compound, how does the inhibition read?
A: The inhibition was inconclusive: 11%.

Q: With `COc1ccc(Nc2cc(C)nc(Nc3ccc(NC(=O)c4ccccc4)cc3)n2)cc1` as the compound, how does the inhibition read?
A: Its inhibition is inconclusive: 23%.

Q: `CCCN(CCC)S(=O)(=O)c1ccc(C(=O)Nc2nnc(-c3cccs3)o2)cc1` was tested. Which inhibition did it give?
A: Its inhibition is inconclusive: 10%.

Q: With `N#Cc1c(NC(=O)CSc2ncccn2)sc2c1CCC2` as the compound, how does the inhibition read?
A: The inhibition was inconclusive: 22%.

Q: How did the inhibition turn out when `Cc1ccccc1C1=N/C(=C\c2ccc(N(C)C)cc2)C(=O)O1` was run?
A: The inhibition was active: 40%.

Q: Which inhibition does the source give for `CC(=O)c1ccc(NC(=O)O[C@@H]2CO[C@H]3[C@@H]2OC[C@@H]3NS(=O)(=O)c2cccs2)cc1` here?
A: The inhibition was inconclusive: 27%.

Q: Which inhibition does the source give for `COc1ccc(OCC(=O)Nc2cc(N3CCCS3(=O)=O)ccc2C)cc1` here?
A: The inhibition was inconclusive: 11%.

Q: With `COc1ncccc1-c1ccc(OCC(N)=O)c(C)c1` as the compound, how does the inhibition read?
A: Its inhibition is inconclusive: 11%.

Q: How did the inhibition turn out when `CCCCC(=O)Nc1ccc(C(=O)N2CCCCC2C(=O)O)cc1` (centres undefined) was run?
A: Its inhibition is inconclusive: 14%.

Q: How did the inhibition turn out when `CC(=O)c1cccc(NC(=O)c2noc3c2CCC3)c1` was run?
A: Its inhibition is inconclusive: 10%.

Q: How did the inhibition turn out when `COCC(C)N(Cc1ccccc1OC)C(=O)c1cnn2ccccc12` (centres undefined) was run?
A: The inhibition was inconclusive: 17%.

Q: How did the inhibition turn out when `Cc1ccc(-n2nc3c(c2NC(=O)c2c(F)cccc2Cl)CS(=O)C3)cc1` (centres undefined) was run?
A: Its inhibition is “inactive”.

Q: For `CC(=O)Nc1ccc(-c2nccn2CC(C)Oc2cccnc2)cc1` (centres undefined), which inhibition is on record?
A: The inhibition was “inactive”.

Q: `CCCCNC(=O)CNC(=O)Cn1ccc2ccccc2c1=O` was tested. Which inhibition did it give?
A: Its inhibition is “inactive”.

Q: With `O=C(Nc1cccc(CCc2ccccn2)c1)c1cc(F)c(F)cc1Cl` as the compound, how does the inhibition read?
A: Its inhibition is “inactive”.

Q: `COc1ccc(NC(=O)CN2CCN(Cc3ccc4c(c3)OCO4)CC2)cc1` was tested. Which inhibition did it give?
A: Its inhibition is “inactive”.

Q: With `C=CC1(C)CC(OC(=O)/C(=C\COC(C)=O)CO)C(C(=C)C(=O)OC)C(O)C1C(=C)CO` (centres undefined) as the compound, how does the inhibition read?
A: Its inhibition is “inactive”.

Q: How did the inhibition turn out when `O=C(Nc1ccccc1)Nc1ccccc1C#Cc1ccccc1` was run?
A: Its inhibition is inconclusive: 10%.

Q: How did the inhibition turn out when `COc1ccccc1NC(=O)c1c(NC(=O)C(C)(C)C)sc2c1CCC2` was run?
A: The inhibition was “inactive”.

Q: With `Cc1nnc(Sc2cc(C(=O)NCCCN(C)c3ccccc3)c3ccccc3n2)s1` as the compound, how does the inhibition read?
A: The inhibition was inconclusive: 26%.

Q: With `CC(C)c1cc(N2C[C@@H]3C[C@H](C2)[C@@H]2CCCC(=O)N2C3)nc(C(F)(F)F)n1` as the compound, how does the inhibition read?
A: Its inhibition is inconclusive: 18%.

Q: How did the inhibition turn out when `COc1cc(C2C(C#N)=C(N)Oc3n[nH]c(-c4ccc5c(c4)OCO5)c32)cc(Cl)c1O` (centres undefined) was run?
A: The inhibition was inconclusive: 16%.

Q: With `CN1CCC2(CC1)CN(C(=O)c1cc(=O)c3ccccc3o1)CCN2C` as the compound, how does the inhibition read?
A: Its inhibition is “inactive”.

Q: How did the inhibition turn out when `Cc1nc2c(C(=O)Nc3cnc4n3CCCC4)cccc2[nH]1` was run?
A: Its inhibition is inconclusive: 20%.

Q: Which inhibition does the source give for `Cc1cccc2[nH]c(CCN(C)C(=O)CC3C(=O)NCCN3CC(C)C)nc12` (centres undefined) here?
A: Its inhibition is “inactive”.

Q: For `Cc1cccc(N=C2NC(=O)c3cc([N+](=O)[O-])ccc32)c1`, which inhibition is on record?
A: Its inhibition is inconclusive: 17%.

Q: `CCSc1nc(CC(=O)NC(CC)c2cnn(C)c2)cs1` (centres undefined) was tested. Which inhibition did it give?
A: Its inhibition is inconclusive: 16%.

Q: For `CN(Cc1ccccc1)C(=O)c1cccn2c(=O)c3sccc3nc12`, which inhibition is on record?
A: Its inhibition is “inactive”.

Q: Which inhibition does the source give for `CCCCC(=O)Nc1ccc(NC(=O)CC2C=CS(=O)(=O)C2)cc1` (centres undefined) here?
A: Its inhibition is “inactive”.

Q: With `CC1=C(C#N)C(c2cccnc2)C2=C(CC(c3ccc(Cl)cc3)CC2=O)N1` (centres undefined) as the compound, how does the inhibition read?
A: Its inhibition is inconclusive: 17%.

Q: `COc1ccc(CNC(=O)CN2C(=O)CC(C)(C)Sc3ccccc32)cc1` was tested. Which inhibition did it give?
A: The inhibition was inconclusive: 11%.

Q: With `Cc1ccc(CNC(=O)CN2C(=O)C3CCCCN3C(=O)c3ccccc32)cc1` (centres undefined) as the compound, how does the inhibition read?
A: Its inhibition is inconclusive: 14%.
